For part of these data: HELM strings list residues between dots; [ac] is acetyl, [am] amide, other brackets name non-standard units. [ ]: non-standard residue; d: D form. Pen = CC(C)(S)[C@H](N)C(=O)O; Phg = N[C@H](C(=O)O)c1ccccc1; Nle = CCCC[C@H](N)C(=O)O; Nva = CCC[C@H](N)C(=O)O; Abu = CC[C@H](N)C(=O)O; Aib = CC(C)(N)C(=O)O

The nature of data set [1]: general procedure: Fmoc solid-phase peptide synthesis; Fmoc-Leu-Wang resin; DIC/HOBt. To be noted: whole synthesis.
The nature of data set [2]: general procedure: Fmoc solid-phase peptide synthesis; Wang resin preloaded with the first amino acid (Novabiochem); DIC/HOBt. To be noted: for final HPLC purity: analytical HPLC; for isolated yield: overall.
Data set [3] in a line: general procedure: Fmoc solid-phase peptide synthesis; Fmoc-Val-Wang resin; DIC/HOBt. The following applies: whole synthesis, scale 0.2 mmol.
A short description of data set [4]: general procedure: Fmoc solid-phase peptide synthesis; Fmoc-Ile-Wang resin; DIC/HOBt. The following applies: whole synthesis.
Setting [5] is: whole synthesis, scale of the general procedure 0.05-0.2 mmol.

With “PEPTIDE1{I.A.F.C.R.L}$PEPTIDE1,PEPTIDE1,6:R2-1:R1$$$V2.0”, the isolated mass in data set [1] (scale 0.1 mmol) is listed as 10 mg. In addition, in data set [2] (setting [5]), the “final HPLC purity” value amounted to 93% purity and the isolated yield is 14% overall yield.

On to “PEPTIDE1{I.F.C.R.L.L}$PEPTIDE1,PEPTIDE1,6:R2-1:R1$$$V2.0”, for which the isolated mass in data set [1] (scale 0.2 mmol) is given as 83 mg. For the same substance, in data set [2] (setting [5]), the “final HPLC purity” value amounted to 95% purity and the isolated yield is given as 56% overall yield.

Turning to “PEPTIDE1{I.I.A.C.R.L}$PEPTIDE1,PEPTIDE1,6:R2-1:R1$$$V2.0”, the isolated mass in data set [1] (scale 0.1 mmol) is reported as 31 mg. Besides, in data set [2] (setting [5]), the “final HPLC purity” value is 86% purity and the isolated yield is given as 46% overall yield.

For the substance “PEPTIDE1{I.I.F.C.R.L}$PEPTIDE1,PEPTIDE1,6:R2-1:R1$$$V2.0”, in data set [1] (scale 0.2 mmol), the isolated mass is listed as 60 mg. Besides, in data set [2] (setting [5]), the “final HPLC purity” value amounted to 99% purity and the isolated yield worked out at 40% overall yield.

With “PEPTIDE1{I.I.F.C.R.V}$PEPTIDE1,PEPTIDE1,6:R2-1:R1$$$V2.0”, the isolated mass in data set [3] is given as 18 mg. Besides, in data set [2] (setting [5]), the “final HPLC purity” value was 96% purity and the isolated yield came to 12% overall yield.

As for “cyclo(ALIIFC) (SMILES CC[C@H](C)[C@@H]1NC(=O)[C@H](CC(C)C)NC(=O)[C@H](C)NC(=O)[C@H](CS)NC(=O)[C@H](Cc2ccccc2)NC(=O)[C@H]([C@@H](C)CC)NC1=O)”, the isolated mass in data set [1] (scale 0.2 mmol) was 13 mg. Moreover, in data set [2] (setting [5]), the “final HPLC purity” value was found to be 90% purity and the isolated yield came to 10% overall yield.

In turn, “cyclo(ARLIIF) (SMILES CC[C@H](C)[C@@H]1NC(=O)[C@H](CC(C)C)NC(=O)[C@H](CCCNC(=N)N)NC(=O)[C@H](C)NC(=O)[C@H](Cc2ccccc2)NC(=O)[C@H]([C@@H](C)CC)NC1=O)” registered an isolated mass in data set [1] (scale 0.1 mmol) of 33 mg. In addition, in data set [2] (setting [5]), the “final HPLC purity” value was 94% purity and the isolated yield turned out to be 46% overall yield.

“cyclo(CKLIIF) (SMILES CC[C@H](C)[C@@H]1NC(=O)[C@H](CC(C)C)NC(=O)[C@H](CCCCN)NC(=O)[C@H](CS)NC(=O)[C@H](Cc2ccccc2)NC(=O)[C@H]([C@@H](C)CC)NC1=O)” returned an isolated mass in data set [1] (scale 0.2 mmol) of 10 mg. Besides, in data set [2] (setting [5]), the “final HPLC purity” value was 91% purity and the isolated yield amounted to 7% overall yield.

With “cyclo(CKLLIF) (SMILES CC[C@H](C)[C@@H]1NC(=O)[C@H](CC(C)C)NC(=O)[C@H](CC(C)C)NC(=O)[C@H](CCCCN)NC(=O)[C@H](CS)NC(=O)[C@H](Cc2ccccc2)NC1=O)”, the isolated mass in data set [1] (scale 0.2 mmol) worked out at 23 mg. In data set [2] (setting [5]), the “final HPLC purity” value is 97% purity and the isolated yield is listed as 16% overall yield.

Substance “cyclo(CRAIIF) (SMILES CC[C@H](C)[C@@H]1NC(=O)[C@H](C)NC(=O)[C@H](CCCNC(=N)N)NC(=O)[C@H](CS)NC(=O)[C@H](Cc2ccccc2)NC(=O)[C@H]([C@@H](C)CC)NC1=O)” had an isolated mass in data set [1] (scale 0.1 mmol) of 7 mg. In data set [2] (setting [5]), the “final HPLC purity” value is given as 90% purity and the isolated yield was 10% overall yield.

In data set [1] (scale 0.1 mmol), “cyclo(CRLAIF) (SMILES CC[C@H](C)[C@@H]1NC(=O)[C@H](C)NC(=O)[C@H](CC(C)C)NC(=O)[C@H](CCCNC(=N)N)NC(=O)[C@H](CS)NC(=O)[C@H](Cc2ccccc2)NC1=O)” showed an isolated mass of 23 mg. Moreover, in data set [2] (setting [5]), the “final HPLC purity” value stood at 99% purity and the isolated yield was determined as 33% overall yield.

In the case of “cyclo(CRLIIY) (SMILES CC[C@H](C)[C@@H]1NC(=O)[C@H](CC(C)C)NC(=O)[C@H](CCCNC(=N)N)NC(=O)[C@H](CS)NC(=O)[C@H](Cc2ccc(O)cc2)NC(=O)[C@H]([C@@H](C)CC)NC1=O)”, the isolated mass in data set [4] (scale 0.1 mmol) is listed as 50 mg. In addition, in data set [2] (setting [5]), the “final HPLC purity” value came to 85% purity and the isolated yield amounted to 66% overall yield.

In the case of “cyclo(CRLII[Phg]) (SMILES CC[C@H](C)[C@@H]1NC(=O)[C@H](CC(C)C)NC(=O)[C@H](CCCNC(=N)N)NC(=O)[C@H](CS)NC(=O)[C@H](c2ccccc2)NC(=O)[C@H]([C@@H](C)CC)NC1=O)”, the isolated mass in data set [4] (scale 0.05 mmol) came out at 15 mg. Besides, in data set [2] (setting [5]), the “final HPLC purity” value amounted to 93% purity and the isolated yield came to 41% overall yield.

Turning to “cyclo(CRLILF) (SMILES CC[C@H](C)[C@@H]1NC(=O)[C@H](CC(C)C)NC(=O)[C@H](CCCNC(=N)N)NC(=O)[C@H](CS)NC(=O)[C@H](Cc2ccccc2)NC(=O)[C@H](CC(C)C)NC1=O)”, the isolated mass in data set [1] (scale 0.1 mmol) was determined as 43 mg. Besides, in data set [2] (setting [5]), the “final HPLC purity” value was determined as 99% purity and the isolated yield is 57% overall yield.

In the case of “cyclo(CRLIVF) (SMILES CC[C@H](C)[C@@H]1NC(=O)[C@H](CC(C)C)NC(=O)[C@H](CCCNC(=N)N)NC(=O)[C@H](CS)NC(=O)[C@H](Cc2ccccc2)NC(=O)[C@H](C(C)C)NC1=O)”, the isolated mass in data set [4] (scale 0.1 mmol) is 15 mg. In data set [2] (setting [5]), the “final HPLC purity” value was 81% purity and the isolated yield was 21% overall yield.

Take “cyclo(CRLI[Nle]F) (SMILES CCCC[C@@H]1NC(=O)[C@H]([C@@H](C)CC)NC(=O)[C@H](CC(C)C)NC(=O)[C@H](CCCNC(=N)N)NC(=O)[C@H](CS)NC(=O)[C@H](Cc2ccccc2)NC1=O)”: the isolated mass in data set [1] (scale 0.1 mmol) is 44 mg. In data set [2] (setting [5]), the “final HPLC purity” value was found to be 96% purity and the isolated yield came out at 59% overall yield.

As for “cyclo(CRLI[Nva]F) (SMILES CCC[C@@H]1NC(=O)[C@H]([C@@H](C)CC)NC(=O)[C@H](CC(C)C)NC(=O)[C@H](CCCNC(=N)N)NC(=O)[C@H](CS)NC(=O)[C@H](Cc2ccccc2)NC1=O)”, in data set [1] (scale 0.1 mmol), the isolated mass is on record as 32 mg. Moreover, in data set [2] (setting [5]), the “final HPLC purity” value stood at 97% purity and the isolated yield is on record as 44% overall yield.

In data set [4] (scale 0.1 mmol), “cyclo(FSRLII) (SMILES CC[C@H](C)[C@@H]1NC(=O)[C@H](CC(C)C)NC(=O)[C@H](CCCNC(=N)N)NC(=O)[C@H](CO)NC(=O)[C@H](Cc2ccccc2)NC(=O)[C@H]([C@@H](C)CC)NC1=O)” returned an isolated mass of 16 mg. Besides, in data set [2] (setting [5]), the “final HPLC purity” value is listed as 95% purity and the isolated yield worked out at 22% overall yield.

As to “cyclo(FTRLII) (SMILES CC[C@H](C)[C@@H]1NC(=O)[C@H](CC(C)C)NC(=O)[C@H](CCCNC(=N)N)NC(=O)[C@H]([C@@H](C)O)NC(=O)[C@H](Cc2ccccc2)NC(=O)[C@H]([C@@H](C)CC)NC1=O)”, in data set [4] (scale 0.1 mmol), the isolated mass was found to be 26 mg. Moreover, in data set [2] (setting [5]), the “final HPLC purity” value stood at 94% purity and the isolated yield came to 35% overall yield.

Turning to “cyclo(F[Pen]RLII) (SMILES CC[C@H](C)[C@@H]1NC(=O)[C@H](CC(C)C)NC(=O)[C@H](CCCNC(=N)N)NC(=O)[C@H](C(C)(C)S)NC(=O)[C@H](Cc2ccccc2)NC(=O)[C@H]([C@@H](C)CC)NC1=O)”, the cyclisation yield in data set [2] (cyclisation step) was found to be 32%. In addition, in data set [2] (late stage modification step), the step yield is 78% and the “final HPLC purity” value is 81% purity.

Consider “cyclo([Abu]FCRLI) (SMILES CC[C@@H]1NC(=O)[C@H]([C@@H](C)CC)NC(=O)[C@H](CC(C)C)NC(=O)[C@H](CCCNC(=N)N)NC(=O)[C@H](CS)NC(=O)[C@H](Cc2ccccc2)NC1=O)”, for which the isolated mass in data set [1] (scale 0.1 mmol) is given as 48 mg. In data set [2] (setting [5]), the “final HPLC purity” value was 97% purity and the isolated yield is 67% overall yield.

“cyclo([Aib]FCRLI) (SMILES CC[C@H](C)[C@@H]1NC(=O)[C@H](CC(C)C)NC(=O)[C@H](CCCNC(=N)N)NC(=O)[C@H](CS)NC(=O)[C@H](Cc2ccccc2)NC(=O)C(C)(C)NC1=O)” had an isolated mass in data set [4] (scale 0.1 mmol) of 18 mg. Besides, in data set [2] (setting [5]), the “final HPLC purity” value is 99% purity and the isolated yield was 25% overall yield.

In data set [4] (scale 0.1 mmol), cyclo-CRLII(D-Phe) registered an isolated mass of 17 mg. For the same substance, in data set [2] (setting [5]), the “final HPLC purity” value came out at 84% purity and the isolated yield stood at 23% overall yield.

Consider cyclo-CRLIIF(4-Br), for which the isolated mass in data set [4] (scale 0.1 mmol) was found to be 48 mg. Also, in data set [2] (setting [5]), the “final HPLC purity” value is 94% purity and the isolated yield came out at 59% overall yield.

cyclo-CRLIIF(4-Bz) came in with an isolated mass in data set [4] (scale 0.1 mmol) of 47 mg. For the same substance, in data set [2] (setting [5]), the “final HPLC purity” value is recorded as 99% purity and the isolated yield came out at 55% overall yield.

In data set [4] (scale 0.05 mmol), cyclo-CRLIIF(4-CF3) yielded an isolated mass of 12 mg. Moreover, in data set [2] (setting [5]), the “final HPLC purity” value was 99% purity and the isolated yield is reported as 30% overall yield.

In the case of cyclo-CRLIIF(4-CN), the isolated mass in data set [4] (scale 0.1 mmol) is 38 mg. In data set [2] (setting [5]), the “final HPLC purity” value is given as 86% purity and the isolated yield worked out at 49% overall yield.

cyclo-CRLIIF(4-Cl): the isolated mass in data set [4] (scale 0.1 mmol) came to 52 mg. Moreover, in data set [2] (setting [5]), the “final HPLC purity” value came out at 82% purity and the isolated yield stood at 67% overall yield.

Regarding cyclo-CRLIIF(4-F), the isolated mass in data set [4] (scale 0.1 mmol) was 43 mg. Also, in data set [2] (setting [5]), the “final HPLC purity” value was 87% purity and the isolated yield was found to be 57% overall yield.

cyclo-CRLIIF(4-I) returned an isolated mass in data set [4] (scale 0.1 mmol) of 46 mg. Also, in data set [2] (setting [5]), the “final HPLC purity” value came to 99% purity and the isolated yield worked out at 53% overall yield.

On to cyclo-CRLIIF(4-NO2), for which the isolated mass in data set [4] (scale 0.2 mmol) was 90 mg. Moreover, in data set [2] (setting [5]), the “final HPLC purity” value amounted to 99% purity and the isolated yield came out at 57% overall yield.

For the substance cyclo-CRLIIY(Me), in data set [4] (scale 0.1 mmol), the isolated mass was 42 mg. In data set [2] (setting [5]), the “final HPLC purity” value was 88% purity and the isolated yield was 54% overall yield.

The values above are taken from paper PMC10996005 (Journal of the American Chemical Society, 2024).
